# Laboratory results reported in the supplement of paper PMC10398353.
# Structures can show the parent of a compound that is named as a salt. ± gives the standard deviation of the averaged measurements. The list shows a part of the results. This is a noisy data set.
# Tested on: Salmonella enterica serovar Typhimurium ST313 D23580
# Experiment: normalized bacterial growth (OD600 20 h minus 0 h, interquartile-mean normalized) (fraction of plate interquartile mean); higher = more bacterial growth (less inhibition)
# Conditions: LPM (pH 5.8, low phosphate, low Mg2+), concentration: 10 µM, temperature: 37 °C
row,SMILES,normalized bacterial growth
1,Cc1scc2c1N(C(=O)CN1CCN(C)CC1)c1ccccc1NC2=O,1.21
2,"CN(C)CCC(c1ccc(Cl)cc1)c1ccccn1 (single isomer, unassigned; (+)) [(+)-Chlorpheniramine maleate]",0.694
3,C=C1c2cccc(O)c2C(=O)C2=C(O)[C@]3(O)C(=O)C(C(N)=O)=C(O)[C@@H](N(C)C)[C@@H]3[C@@H](O)[C@H]12,0.0993
4,c1ccc(C2CN3CCSC3=N2)cc1 (configuration not stated) [Tetramisole hydrochloride],0.611
5,COc1cc2cc3c4cc(OC)c(OC)cc4cc[n+]3c(C)c2cc1OC,0.925
6,COc1cc2cc3c4cc(OC)c(OC)cc4cc[n+]3c(C)c2cc1OC [Coralyne chloride hydrate],0.851
7,CC(COc1ccc(/C=C/c2ccccc2)cc1)[N+](C)(C)C (configuration not stated),0.823
8,OC[C@H]1O[C@H]([S-])[C@H](O)[C@@H](O)[C@@H]1O.[Au+] [Aurothioglucose],0.92
9,OC[C@H]1O[C@H]([S-])[C@H](O)[C@@H](O)[C@@H]1O.[Au+],1.04
10,CCC(=O)N1CCN(C(=O)c2ccccc2)CC1,1.21
11,Cc1cc(=O)oc2cc(O)ccc12 [Hymecromone],1.17
12,CNC(=O)c1cc2c(cn1)[nH]c1ccccc12 [N-Methyl-beta-carboline-3-carboxamide],0.895
13,CNc1ncnc2c1ncn2[C@H]1C[C@H](OP(=O)(O)O)[C@@H](COP(=O)(O)O)O1,1.16
14,COc1ccc(CN(CCN(C)C)c2ccccn2)cc1 [Pyrilamine maleate],0.905
15,CCCNC(C)C(=O)Nc1ccccc1C (configuration not stated) [Prilocaine hydrochloride],0.861
16,Nc1ncn([C@@H]2O[C@H](CO)[C@@H](O)[C@H]2O)c(=O)n1 [5-azacytidine],0.0558
17,CC(COc1ccccc1)N(CCCl)Cc1ccccc1 (configuration not stated) [Phenoxybenzamine hydrochloride],1.17
18,CC(=O)c1ccc(S(=O)(=O)NC(=O)NC2CCCCC2)cc1 [Acetohexamide],1.15
19,CCCCC[C@H](O)/C=C/[C@@H]1[C@@H](C/C=C\CCCC(=O)O)[C@@H](O)C[C@H]1O,0.365
20,CCCCC[C@H](O)/C=C/[C@@H]1[C@@H](C/C=C\CCCC(=O)O)[C@@H](O)C[C@H]1O [Dinoprost trometamol],0.874
21,CCSC(=N)N [S-Ethylisothiourea hydrobromide],1.13

# A different layout for part of the listing above:
row	SMILES	normalized bacterial growth
18	CC(=O)c1ccc(S(=O)(=O)NC(=O)NC2CCCCC2)cc1 [Acetohexamide]	1.15
21	CCSC(=N)N [S-Ethylisothiourea hydrobromide]	1.13

# Further entries follow.

row,SMILES,normalized bacterial growth
1,COc1cc(-c2coc3cc(O)c(OC)c(O)c3c2=O)cc(O)c1OC,0.941
2,CCOC(=O)OC(C)OC(=O)[C@@H]1N2C(=O)[C@@H](NC(=O)[C@H](N)c3ccccc3)[C@H]2SC1(C)C (some centres not stated) [Bacampicillin hydrochloride],0.683
3,CCOC(=O)OC(C)OC(=O)[C@@H]1N2C(=O)[C@@H](NC(=O)[C@H](N)c3ccccc3)[C@H]2SC1(C)C (some centres not stated),1.14
4,CCOC(=O)[C@H](CCc1ccccc1)N[C@H]1CCc2ccccc2N(CC(=O)O)C1=O,1.37
5,CC(C)CCC[C@@H](C)[C@H]1CC[C@H]2[C@@H]3CC[C@H]4C[C@H](O)CC[C@]4(C)[C@H]3CC[C@]12C,1.11
6,O=C1CCC(c2ccc(-n3ccnc3)cc2)=NN1 [Imazodan],0.852
7,COC1=C(OC)C(=O)C(CCCCCCCCCCO)=C(C)C1=O,0.626
8,CCNC(=O)N1CCN(CCCC(c2ccc(F)cc2)c2ccc(F)cc2)CC1 [Amperozide hydrochloride],0.999
9,Fc1ccc(C(OCCCc2cnc[nH]2)c2ccc(F)cc2)cc1,0.875
10,NC1(C(=O)O)CCCC1,1.01
11,NCCCC[C@H](N[C@@H](CCc1ccccc1)C(=O)O)C(=O)N1CCC[C@H]1C(=O)O,1.07
12,NCCCC[C@H](N[C@@H](CCc1ccccc1)C(=O)O)C(=O)N1CCC[C@H]1C(=O)O [Lisinopril],1.16
13,CC(C)(C)NC[C@H](O)COc1nsnc1N1CCOCC1 [S(-)-Timolol maleate],1.12
14,CC(C)(C)NC[C@H](O)COc1nsnc1N1CCOCC1,1.3
15,CC(C)(C)NC[C@H](O)COc1nsnc1N1CCOCC1 [Timolol maleate salt],1.07
16,C[C@]12CCC(=O)C=C1CC[C@@H]1[C@@H]2[C@@H](O)C[C@@]2(C)[C@H]1CC[C@]2(O)C(=O)COC(=O)CCC(=O)O,1.15
17,c1ccc2c(c1)CCC[C@H]2Nc1nc2ccccc2[nH]1 [NS8593 hydrochloride],0.696
18,C[C@@]12CCc3occc3[C@H]1CC[C@@]13C[C@@H](CC[C@H]12)[C@@](O)(CO)C3,0.931 ± 0.29
19,CO/N=C(\C(=O)N[C@@H]1C(=O)N2C(C(=O)O)=C(CSc3nc(=O)c(O)nn3C)CS[C@H]12)c1csc(N)n1,1.25
20,CO/N=C(\C(=O)N[C@@H]1C(=O)N2C(C(=O)O)=C(CSc3nc(=O)c(O)nn3C)CS[C@H]12)c1csc(N)n1 [Ceftriaxone sodium],1.02
21,Oc1ccccc1O [Pyrocatechol],1.09
